Experimental data: article PMC7477090

Sequences of proteins named here, by UniProt entry; tags and fusion partners are left off. A change or cut given only in a name is not applied to a line headed by its entry.
UniProt P19490: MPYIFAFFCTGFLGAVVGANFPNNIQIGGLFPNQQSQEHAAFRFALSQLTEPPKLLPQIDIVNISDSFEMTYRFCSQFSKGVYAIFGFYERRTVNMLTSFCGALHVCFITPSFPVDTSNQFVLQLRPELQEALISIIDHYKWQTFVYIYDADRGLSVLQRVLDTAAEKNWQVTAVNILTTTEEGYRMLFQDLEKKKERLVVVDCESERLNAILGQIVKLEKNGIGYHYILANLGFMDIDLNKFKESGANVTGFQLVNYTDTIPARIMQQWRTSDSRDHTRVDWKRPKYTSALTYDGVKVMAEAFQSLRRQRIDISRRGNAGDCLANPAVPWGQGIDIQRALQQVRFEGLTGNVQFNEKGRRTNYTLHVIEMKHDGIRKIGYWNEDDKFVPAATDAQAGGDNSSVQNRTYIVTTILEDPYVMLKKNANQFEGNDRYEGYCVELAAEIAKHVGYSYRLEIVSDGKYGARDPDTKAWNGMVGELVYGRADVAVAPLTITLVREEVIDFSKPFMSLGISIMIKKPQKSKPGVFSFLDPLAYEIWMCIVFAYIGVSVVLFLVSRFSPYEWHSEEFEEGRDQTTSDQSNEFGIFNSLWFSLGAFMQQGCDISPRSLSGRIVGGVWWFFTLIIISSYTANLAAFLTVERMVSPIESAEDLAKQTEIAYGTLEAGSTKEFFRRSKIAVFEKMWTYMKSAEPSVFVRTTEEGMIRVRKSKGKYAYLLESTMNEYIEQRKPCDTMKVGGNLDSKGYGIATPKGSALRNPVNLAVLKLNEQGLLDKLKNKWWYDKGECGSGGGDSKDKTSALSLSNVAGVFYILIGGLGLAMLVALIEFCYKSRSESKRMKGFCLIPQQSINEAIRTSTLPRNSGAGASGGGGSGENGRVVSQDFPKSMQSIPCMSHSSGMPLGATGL
UniProt P19492: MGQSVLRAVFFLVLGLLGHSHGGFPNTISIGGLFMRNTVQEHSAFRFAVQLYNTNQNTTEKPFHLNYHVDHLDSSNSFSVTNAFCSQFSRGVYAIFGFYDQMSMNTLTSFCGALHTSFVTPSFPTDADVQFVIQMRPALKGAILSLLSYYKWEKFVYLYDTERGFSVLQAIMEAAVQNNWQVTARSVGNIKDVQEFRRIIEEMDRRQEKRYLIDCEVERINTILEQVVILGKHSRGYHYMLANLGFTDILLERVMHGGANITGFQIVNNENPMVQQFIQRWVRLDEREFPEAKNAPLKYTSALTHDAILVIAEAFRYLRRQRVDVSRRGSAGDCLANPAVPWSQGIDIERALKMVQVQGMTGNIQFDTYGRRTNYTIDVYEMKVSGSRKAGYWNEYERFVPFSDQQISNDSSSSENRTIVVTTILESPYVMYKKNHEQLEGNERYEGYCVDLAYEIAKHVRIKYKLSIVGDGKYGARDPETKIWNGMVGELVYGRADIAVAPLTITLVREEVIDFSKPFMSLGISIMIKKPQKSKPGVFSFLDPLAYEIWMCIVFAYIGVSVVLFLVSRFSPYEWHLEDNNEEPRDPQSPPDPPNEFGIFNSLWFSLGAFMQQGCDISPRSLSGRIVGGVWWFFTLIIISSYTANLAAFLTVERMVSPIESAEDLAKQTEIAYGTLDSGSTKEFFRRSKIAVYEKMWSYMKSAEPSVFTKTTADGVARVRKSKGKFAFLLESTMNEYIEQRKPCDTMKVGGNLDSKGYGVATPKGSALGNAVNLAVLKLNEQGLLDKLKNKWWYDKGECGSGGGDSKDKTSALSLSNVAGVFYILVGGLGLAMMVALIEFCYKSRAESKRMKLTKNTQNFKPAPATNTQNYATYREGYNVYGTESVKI
UniProt P19491: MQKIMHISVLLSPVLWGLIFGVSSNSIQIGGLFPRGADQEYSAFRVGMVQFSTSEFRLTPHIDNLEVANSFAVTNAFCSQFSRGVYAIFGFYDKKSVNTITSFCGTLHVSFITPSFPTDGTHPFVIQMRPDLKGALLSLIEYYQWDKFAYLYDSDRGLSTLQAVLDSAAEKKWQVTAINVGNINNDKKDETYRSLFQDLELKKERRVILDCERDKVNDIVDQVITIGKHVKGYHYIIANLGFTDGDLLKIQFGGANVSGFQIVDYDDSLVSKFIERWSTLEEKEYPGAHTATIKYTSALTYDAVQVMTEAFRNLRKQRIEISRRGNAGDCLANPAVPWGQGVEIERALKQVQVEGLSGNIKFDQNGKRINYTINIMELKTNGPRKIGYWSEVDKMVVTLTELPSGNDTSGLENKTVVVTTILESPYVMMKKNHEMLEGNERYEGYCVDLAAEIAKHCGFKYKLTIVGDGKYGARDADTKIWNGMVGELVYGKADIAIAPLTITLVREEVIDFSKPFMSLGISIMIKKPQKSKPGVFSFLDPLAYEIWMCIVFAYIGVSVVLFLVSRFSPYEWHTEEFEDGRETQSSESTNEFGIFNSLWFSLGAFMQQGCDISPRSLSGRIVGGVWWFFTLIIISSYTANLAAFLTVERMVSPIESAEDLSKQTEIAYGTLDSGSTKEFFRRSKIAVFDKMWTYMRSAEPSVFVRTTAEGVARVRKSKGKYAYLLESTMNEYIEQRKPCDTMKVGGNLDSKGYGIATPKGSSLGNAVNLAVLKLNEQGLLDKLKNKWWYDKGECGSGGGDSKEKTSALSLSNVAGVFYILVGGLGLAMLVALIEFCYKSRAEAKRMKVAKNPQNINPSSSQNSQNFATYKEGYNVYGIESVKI

Molecular target: T1, myc-tagged porcupine O-acyltransferase (PORCN) (UniProt Q9JJJ7)
T1 sequence: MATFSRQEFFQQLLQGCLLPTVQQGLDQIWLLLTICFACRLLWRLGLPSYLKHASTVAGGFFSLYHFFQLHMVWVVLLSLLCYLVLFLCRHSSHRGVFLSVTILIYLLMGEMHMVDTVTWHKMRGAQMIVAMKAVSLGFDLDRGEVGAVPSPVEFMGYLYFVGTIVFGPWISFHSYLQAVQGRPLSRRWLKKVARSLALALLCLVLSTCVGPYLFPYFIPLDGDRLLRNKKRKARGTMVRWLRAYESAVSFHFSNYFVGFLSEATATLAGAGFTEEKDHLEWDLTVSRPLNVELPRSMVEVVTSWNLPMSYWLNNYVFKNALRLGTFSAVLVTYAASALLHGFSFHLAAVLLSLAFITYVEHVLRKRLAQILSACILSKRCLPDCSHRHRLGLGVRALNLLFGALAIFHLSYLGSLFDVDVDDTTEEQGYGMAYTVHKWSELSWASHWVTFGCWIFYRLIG
Test: co-IP; HEK293T cells co-transfected with a GluA construct and myc-PORCN; lysis in 50 mM Tris-HCl, 1 mM EDTA, 150 mM NaCl, 1% CA-630; anti-myc magnetic beads, 12 h at 4°C, four washes; GluA detected by immunoblot

Row | Substance | binding
1 | GluA1-ΔC (from UniProt P19490) (receptor) | binds
2 | GluA3-ΔATD (from UniProt P19492) (receptor) | binds
3 | GluA1-ΔATD (from UniProt P19490) (receptor) | binds
4 | GluA2-Δ824 (from UniProt P19491) (receptor) | binds
5 | GluA3-ΔMPR (from UniProt P19492) (receptor) | binds
6 | GluA1-Δ824 (from UniProt P19490) (receptor) | binds

Other lines, results leading:

Row | binding | Substance
7 | binds | GluA2-ΔATD (from UniProt P19491) (receptor)
8 | binds | GluA3-Δ824 (from UniProt P19492) (receptor)
9 | binds | GluA2-ΔC (from UniProt P19491) (receptor)

These are yes or no findings as the source states them, for the method shown. Binding seen in cells or lysates may run through a third protein. Binding calls can cover weak binding; strength is not graded here. Tags and fused reporters may be left off the sequences shown.
